Measured values reported in paper PMC6445228, “Synthesis and biological evaluation of anti-Toxoplasma gondii activity of a novel scaffold of thiazolidinone derivatives” (Journal of Enzyme Inhibition and Medicinal Chemistry, 2017).

Tested on: T. gondii RH-2 F tachyzoites
Test: Five-day growth inhibition assay (tachyzoite growth, colorimetric)
Type: cell-based, Toxoplasma gondii
Experimental: Using published methods[8]^,[19], all of the prepared N-substituted thiazolidinones derivatives were evaluated in vitro for (i) host cell cytotoxicity as well as for the ability to inhibit tachyzoite growth over a period of 5 days (Table 1), for (ii) the ability to inhibit tachyzoite invasion of host cells (Figure 1), and for (iii) the ability to inhibit intracellular tachyzoite replication (Figure 2).
Compounds were tested for the ability to inhibit in vitro tachyzoite (T. gondii RH-2 F (50839); ATCC, VA) and human foreskin fibroblast (HFF; ATCC) growth for 120 h using a published colorimetric assay[8]^,[19]. Stock solutions of all compounds were 10 mM in DMSO. Serial 0.5 log10 dilutions (320–0.032 μM) of each compound were tested. Data from three separate experiments were analysed and the IC50, IC90, and TD50 calculated using Calcusyn software (Biosoft, Cambridge, UK). The therapeutic index (TI), a measure of specific anti-T. gondii activity, was calculated with the formula shown under Table 1.
We explored the chemical space and the influence on the biological activity of different groups (substituted aromatic and bicyclic rings) at the lactam NH of the core nucleus. […] In the five-day growth inhibition assay, compounds were added only once, just before addition of tachyzoites, and thus were present for multiple cycles, up to 20, of parasite replication.

Row | Compound | TI, therapeutic index, TD50/IC50 (When TD50 ≥320 TI = 320/IC50) | TI, therapeutic index, TD50/IC50
1 | CCCCC(CC)=NN=C1SCC(=O)N1Cc1ccccc1[N+](=O)[O-] [Compound 1, 2-((Heptan-3-ylidene)hydrazono)-3-(2-nitrobenzyl)thiazolidin-4-one] | 12 | –
2 | CC(=NN=C1SCC(=O)N1Cc1ccccc1[N+](=O)[O-])c1cccs1 [Compound 2, 3-(2-Nitrobenzyl)-2-((1-(thiophen-2-yl)ethylidene)hydrazono)thiazolidin-4-one] | 8 | –
3 | CC(=NN=C1SCC(=O)N1Cc1ccccc1[N+](=O)[O-])c1ccc[cH-]1.[Fe+2].c1cc[cH-]c1 [Compound 3, 3-(2-Nitrobenzyl)-2-((1-(ferrocen-2-yl)ethylidene)hydrazono)thiazolidin-4-one] | 21 | –
4 | CCCCC(CC)=NN=C1SCC(=O)N1Cc1cccc([N+](=O)[O-])c1 [Compound 4, 2-((Heptan-3-ylidene)hydrazono)-3–(3-nitrobenzyl)thiazolidin-4-one] | 2 | –
5 | CC(=NN=C1SCC(=O)N1Cc1cccc([N+](=O)[O-])c1)c1cccs1 [Compound 5, 3-(3-Nitrobenzyl)-2-((1-(thiophen-2-yl)ethylidene)hydrazono)thiazolidin-4-one] | 6 | –
6 | CC(=NN=C1SCC(=O)N1Cc1cccc([N+](=O)[O-])c1)c1ccc[cH-]1.[Fe+2].c1cc[cH-]c1 [Compound 6, 3-(3-Nitrobenzyl)-2-((1-(ferrocen-2-yl)ethylidene)hydrazono)thiazolidin-4-one] | 13 | –
7 | CCCCC(CC)=NN=C1SCC(=O)N1Cc1ccc([N+](=O)[O-])cc1 [Compound 7, 2-((Heptan-3-ylidene)hydrazono)-3-(4-nitrobenzyl)thiazolidin-4-one] | 3 | –
8 | CC(=NN=C1SCC(=O)N1Cc1ccc([N+](=O)[O-])cc1)c1ccc[cH-]1.[Fe+2].c1cc[cH-]c1 [Compound 9, 3-(4-Nitrobenzyl)-2-((1-(ferrocen-2-yl)ethylidene)hydrazono)thiazolidin-4-one] | 3 | –
9 | CCCCC(CC)=NN=C1SCC(=O)N1Cc1ccccc1F [Compound 10, 3-(2-Fluorobenzyl)-2-((heptan-3-ylidene)hydrazono)thiazolidin-4-one] | 4 | –
10 | CC(=NN=C1SCC(=O)N1Cc1ccccc1F)c1cccs1 [Compound 11, 3-(2-Fluorobenzyl)-2-((1-(thiophen-2-yl)ethylidene)hydrazono)thiazolidin-4-one] | 3 | –
11 | CC(=NN=C1SCC(=O)N1Cc1ccccc1F)c1ccc[cH-]1.[Fe+2].c1cc[cH-]c1 [Compound 12, 3-(2-Fluorobenzyl)-2-((1-(ferrocen-2-yl)ethylidene)hydrazono)thiazolidin-4-one] | 19 | –
12 | CCCCC(CC)=NN=C1SCC(=O)N1Cc1cccc(F)c1 [Compound 13, 3-(3-Fluorobenzyl)-2-((heptan-3-ylidene)hydrazono)thiazolidin-4-one] | 14 | –
13 | CC(=NN=C1SCC(=O)N1Cc1cccc(F)c1)c1cccs1 [Compound 14, 3-(3-Fluorobenzyl)-2-((1-(thiophen-2-yl)ethylidene)hydrazono)thiazolidin-4-one] | 4 | –
14 | CC(=NN=C1SCC(=O)N1Cc1cccc(F)c1)c1ccc[cH-]1.[Fe+2].c1cc[cH-]c1 [Compound 15, 3-(3-Fluorobenzyl)-2-((1-(ferrocen-2-yl)ethylidene)hydrazono)thiazolidin-4-one] | 40 | –
15 | CCCCC(CC)=NN=C1SCC(=O)N1Cc1ccc(F)cc1 [Compound 16, 3–(4-Fluorobenzyl)-2-((heptan-3-ylidene)hydrazono)thiazolidin-4-one] | 7 | –
16 | CC(=NN=C1SCC(=O)N1Cc1ccc(F)cc1)c1cccs1 [Compound 17, 3-(4-Fluorobenzyl)-2-((1-(thiophen-2-yl)ethylidene)hydrazono)thiazolidin-4-one] | 4 | –

Row | Compound | TI, therapeutic index, TD50/IC50 (When TD50 ≥320 TI = 320/IC50) | TI, therapeutic index, TD50/IC50
17 | CC(=NN=C1SCC(=O)N1Cc1ccc(F)cc1)c1ccc[cH-]1.[Fe+2].c1cc[cH-]c1 [Compound 18, 3-(4-Fluorobenzyl)-2-((1-(ferrocen-2-yl)ethylidene)hydrazono)thiazolidin-4-one] | 53 | –
18 | CCCCC(CC)=NN=C1SCC(=O)N1Cc1ccccc1Cl [Compound 19, 3-(2-Chlorobenzyl)-2-((heptan-3-ylidene)hydrazono)thiazolidin-4-one] | 2 | –
19 | CC(=NN=C1SCC(=O)N1Cc1ccccc1Cl)c1cccs1 [Compound 20, 3-(2-Chlorobenzyl)-2-((1-(thiophen-2-yl)ethylidene)hydrazono)thiazolidin-4-one] | 2 | –
20 | CC(=NN=C1SCC(=O)N1Cc1ccccc1Cl)c1ccc[cH-]1.[Fe+2].c1cc[cH-]c1 [Compound 21, 3-(2-Chlorobenzyl)-2-((1-(ferrocen-2-yl)ethylidene)hydrazono)thiazolidin-4-one] | 36 | –
21 | CCCCC(CC)=NN=C1SCC(=O)N1Cc1cccc(Cl)c1 [Compound 22, 3-(3-Chlorobenzyl)-2-((heptan-3-ylidene)hydrazono)thiazolidin-4-one] | 9 | –
22 | CC(=NN=C1SCC(=O)N1Cc1cccc(Cl)c1)c1cccs1 [Compound 23, 3-(3-Chlorobenzyl)-2-((1-(thiophen-2-yl)ethylidene)hydrazono)thiazolidin-4-one] | 3 | –
23 | CC(=NN=C1SCC(=O)N1Cc1cccc(Cl)c1)c1ccc[cH-]1.[Fe+2].c1cc[cH-]c1 [Compound 24, 3-(3-Chlorobenzyl)-2-((1-(ferrocen-2-yl)ethylidene)hydrazono)thiazolidin-4-one] | 40 | –
24 | CCCCC(CC)=NN=C1SCC(=O)N1Cc1ccc(Cl)cc1 [Compound 25, 3-(4-Chlorobenzyl)-2-((heptan-3-ylidene)hydrazono)thiazolidin-4-one] | 5 | –
25 | CC(=NN=C1SCC(=O)N1Cc1ccc(Cl)cc1)c1cccs1 [Compound 26, 3-(4-Chlorobenzyl)-2-((1-(thiophen-2-yl)ethylidene)hydrazono)thiazolidin-4-one] | 4 | –
26 | CC(=NN=C1SCC(=O)N1Cc1ccc(Cl)cc1)c1ccc[cH-]1.[Fe+2].c1cc[cH-]c1 [Compound 27, 3-(4-Chlorobenzyl)-2-((1-(ferrocen-2-yl)ethylidene)hydrazono)thiazolidin-4-one] | 32 | –
27 | CCCCC(CC)=NN=C1SCC(=O)N1Cc1cccc2ccccc12 [Compound 28, 2-((Heptan-3-ylidene)hydrazono)-3-(naphthalen-1-ylmethyl)thiazolidin-4-one] | 7 | –
28 | CC(=NN=C1SCC(=O)N1Cc1cccc2ccccc12)c1ccc[cH-]1.[Fe+2].c1cc[cH-]c1 [Compound 30, 3-(Naphthalen-1-ylmethyl)-2-((1-(ferrocen-2-yl)ethylidene)hydrazono)thiazolidin-4-one] | 64 | –
29 | CCCCC(CC)=NN=C1SCC(=O)N1CN1C(=O)c2ccccc2C1=O [Compound 31, 2-((2-((Heptan-3-ylidene)hydrazono)-4-oxothiazolidin-3-yl)methyl)isoindoline-1,3-dione] | 4 | –
30 | CC(=NN=C1SCC(=O)N1CN1C(=O)c2ccccc2C1=O)c1ccc[cH-]1.[Fe+2].c1cc[cH-]c1 [Compound 33, 2-((4-Oxo-2-((1-(ferrocen-2-yl)ethylidene)hydrazono)thiazolidin-3-yl)methyl)isoindoline-1,3-dione] | 2 | –
31 | Nc1ccc(S(=O)(=O)Nc2ncccn2)cc1 [Sulfadiazine, reference compound] | – | 7

Where two headings read alike, the source gives them in different places.
